The values below come from publication PMC4227790.

Results are given in words; binding and its absence hold for the method and conditions named. Binding seen in cells or lysates may run through a third protein. A result given as binding can be weak or reduced; the word gives no strength.

The target of the assay is FLAG-tagged TRAP150 ΔC359 (lacks the C-terminal 359-residue region). Put plainly: co-IP; anti-FLAG immunoprecipitation of FLAG-TRAP150 (full length or truncated) from lysate of transfected HEK293 cells (hypotonic buffer with 0.5% Triton X-100, brought to 150 mM NaCl); precipitates mock- or RNase A-treated; immunoblot of endogenous partners.

B1: CPSF160 (protein, UniProt Q10570 1-1443)
chain: MYAVYKQAHPPTGLEFSMYCNFFNNSERNLVVAGTSQLYVYRLNRDAEALTKNDRSTEGKAHREKLELAASFSFFGNVMSMASVQLAGAKRDALLLSFKDAKLSVVEYDPGTHDLKTLSLHYFEEPELRDGFVQNVHTPRVRVDPDGRCAAMLVYGTRLVVLPFRRESLAEEHEGLVGEGQRSSFLPSYIIDVRALDEKLLNIIDLQFLHGYYEPTLLILFEPNQTWPGRVAVRQDTCSIVAISLNITQKVHPVIWSLTSLPFDCTQALAVPKPIGGVVVFAVNSLLYLNQSVPPYGVALNSLTTGTTAFPLRTQEGVRITLDCAQATFISYDKMVISLKGGEIYVLTLITDGMRSVRAFHFDKAAASVLTTSMVTMEPGYLFLGSRLGNSLLLKYTEKLQEPPASAVREAADKEEPPSKKKRVDATAGWSAAGKSVPQDEVDEIEVYGSEAQSGTQLATYSFEVCDSILNIGPCANAAVGEPAFLSEEFQNSPEPDLEIVVCSGHGKNGALSVLQKSIRPQVVTTFELPGCYDMWTVIAPVRKEEEDNPKGEGTEQEPSTTPEADDDGRRHGFLILSREDSTMILQTGQEIMELDTSGFATQGPTVFAGNIGDNRYIVQVSPLGIRLLEGVNQLHFIPVDLGAPIVQCAVADPYVVIMSAEGHVTMFLLKSDSYGGRHHRLALHKPPLHHQSKVITLCLYRDLSGMFTTESRLGGARDELGGRSGPEAEGLGSETSPTVDDEEEMLYGDSGSLFSPSKEEARRSSQPPADRDPAPFRAEPTHWCLLVRENGTMEIYQLPDWRLVFLVKNFPVGQRVLVDSSFGQPTTQGEARREEATRQGELPLVKEVLLVALGSRQSRPYLLVHVDQELLIYEAFPHDSQLGQGNLKVRFKKVPHNINFREKKPKPSKKKAEGGGAEEGAGARGRVARFRYFEDIYGYSGVFICGPSPHWLLVTGRGALRLHPMAIDGPVDSFAPFHNVNCPRGFLYFNRQGELRISVLPAYLSYDAPWPVRKIPLRCTAHYVAYHVESKVYAVATSTNTPCARIPRMTGEEKEFETIERDERYIHPQQEAFSIQLISPVSWEAIPNARIELQEWEHVTCMKTVSLRSEETVSGLKGYVAAGTCLMQGEEVTCRGRILIMDVIEVVPEPGQPLTKNKFKVLYEKEQKGPVTALCHCNGHLVSAIGQKIFLWSLRASELTGMAFIDTQLYIHQMISVKNFILAADVMKSISLLRYQEESKTLSLVSRDAKPLEVYSVDFMVDNAQLGFLVSDRDRNLMVYMYLPEAKESFGGMRLLRRADFHVGAHVNTFWRTPCRGATEGLSKKSVVWENKHITWFATLDGGIGLLLPMQEKTYRRLLMLQNALTTMLPHHAGLNPRAFRMLHVDRRTLQNAVRNVLDGELLNRYLYLSTMERSELAKKIGTTPDIILDDLLETDRVTAHF
As to B1, the binding entry is listed as “binds”.

B2: CPSF73 (protein, UniProt Q9UKF6 1-684)
chain: MSAIPAEESDQLLIRPLGAGQEVGRSCIILEFKGRKIMLDCGIHPGLEGMDALPYIDLIDPAEIDLLLISHFHLDHCGALPWFLQKTSFKGRTFMTHATKAIYRWLLSDYVKVSNISADDMLYTETDLEESMDKIETINFHEVKEVAGIKFWCYHAGHVLGAAMFMIEIAGVKLLYTGDFSRQEDRHLMAAEIPNIKPDILIIESTYGTHIHEKREEREARFCNTVHDIVNRGGRGLIPVFALGRAQELLLILDEYWQNHPELHDIPIYYASSLAKKCMAVYQTYVNAMNDKIRKQININNPFVFKHISNLKSMDHFDDIGPSVVMASPGMMQSGLSRELFESWCTDKRNGVIIAGYCVEGTLAKHIMSEPEEITTMSGQKLPLKMSVDYISFSAHTDYQQTSEFIRALKPPHVILVHGEQNEMARLKAALIREYEDNDEVHIEVHNPRNTEAVTLNFRGEKLAKVMGFLADKKPEQGQRVSGILVKRNFNYHILSPCDLSNYTDLAMSTVKQTQAIPYTGPFNLLCYQLQKLTGDVEELEIQEKPALKVFKNITVIQEPGMVVLEWLANPSNDMYADTVTTVILEVQSNPKIRKGAVQKVSKKLEMHVYSKRLEIMLQDIFGEDCVSVKDDSILSVTVDGKTANLNLETRTVECEEGSEDDESLREMVELAAQRLYEALTPVH
With B2, the binding entry is reported as “binds”.
